From patent US20160201132A1, “GENE EXPRESSION BIOMARKERS OF LAQUINIMOD RESPONSIVENESS” (Teva Pharmaceutical Industries Ltd., priority 2013, published 2016)
This continues a long series; more values of the same kind are listed elsewhere.

System: PBMC of RRMS patients
Experiment: Gene expression microarray analysis (HG-U133A-2) of PBMC from RRMS patients treated with LAQ, ancillary study to ALLEGRO
Assay type: in vivo, human
Excerpt: The goal of this ancillary study was to characterize gene expression changes and corresponding biological mechanisms induced in PBMC of RRMS patients by LAQ treatment. According to ALLEGRO clinical trial inclusion criteria, 25 patients were randomly assigned to receive LAQ (n=13, age 38.8±2.3 years, female/male ratio: 8/5) or placebo (n=12, age 37.2±3.4 years, female/male ratio: 8/4).
Peripheral blood samples were obtained from RRMS patients at baseline before start of LAQ treatment or placebo, after 0, 1, 6 and 24 month of treatment (visit 0, 1, 6 and 7 according to ALLEGRO clinical trial protocol correspondently) for gene microarray analysis.
Briefly, 1) Peripheral blood mononuclear cells (PBMC) were obtained from RRMS patients that participated in ALLEGRO and were treated daily with 0.6 mg LAQ or placebo. PBMC were subjected for gene expression analysis (HU-133A-2-Affymatrix arrays) at baseline and at 1 and 6 months of LAQ treatment; 2) Data was analyzed by Partek Genomics Solution software. Most informative genes (MIGs) were defined as those that differentiated between groups with p<0.01. Gene functional annotation, enrichment and pathway analysis were performed by Ingenuity software. For each time point, genes that changed in placebo group were excluded from further analysis; and 3) Verification of LAQ related mechanism was performed by Western blot.
PBMC were extracted from 15 ml peripheral blood, separated by Ficoll-Hypaque gradient. Total RNA was extracted using both Trizol (Invitrogen, USA) and Phase-Lock-Gel columns (Eppendorf, Germany) including a DNase digestion step. RNA integrity was assessed by RNA Experion automated electrophoresis system (Bio-Rad Laboratories, Hercules, Calif.).
Probe synthesis using 3 μg total RNA, hybridization, detection, and scanning was performed according to the standard Affymetrix, Inc. USA protocols; cDNA was synthesized using the Two-Cycle cDNA Synthesis Kit (Affymetrix, Inc., USA), and in-vitro transcription performed with the GeneChip IVT Labeling Kit (Affymetrix, Inc., USA). The biotin-labeled IVT-RNA was hybridized to HG-U133A-2 arrays containing 18,400 gene transcripts, each corresponding to 14,500 well-annotated human genes, washed in a GeneChip Fluidics Station 450 (Hewlett Packard, USA, GeneArray-™ scanner G2500A) and scanned according to the manufacturer's protocol (Affymetrix, Inc., USA).
Data analysis was performed on Partek Genomics Solution software (www.partek.com; Partek Incorporated, St. Louis, Mo.). Expression values were computed from raw CEL files by applying the Robust Multi-Chip Average (RMA) background correction algorithm. RMA correction included: 1) values background correction; 2) quintile normalization; 3) log 2 transformation; and 4) median polish summarization. The ANOVA, Repeated Measures and correlation analysis implicated in Partek software ware applied to evaluate LAQ effects. Most informative genes MIGs were defined as those that differentiated between experimental groups with p<0.01. All p-values were calculated for False Discovery Rate (FDR) multiple test correction at p=0.05.
Additionally, significance of individual genes was tested by parametric T-test and non parametric Mann-Whitney test using Bootstrapping approach based on repeated permutations of the data with 5% FDR for multiple testing.
Gene functional annotation, enrichment, and pathway analyses to identify the leading biological pathways that operated under LAQ treatment were performed by Ingenuity Pathways Analysis software (www.ingenuity.com).
ANOVA analysis was used to compare PBMC gene expression after 1, 6 or 24 month of LAQ treatment with baseline gene expression.
For each time point inventors performed analysis source of variation in dataset. (FIG. 1). Age, gender and batch effects were considered as confounders regarding LAQ or Placebo related changes. For each time point genes associated with Placebo effect were evaluated and excluded from further analysis. […]

CCN(C(=O)c1c(O)c2c(Cl)cccc2n(C)c1=O)c1ccccc1 [LAQ, 5-chloro-N-ethyl-4-hydroxy-1-methyl-2-oxo-N-phenyl-1,2-dihydroquinoline-3-carboxamide]
Fold-Change (4.0 vs. 0.0) (gene ADAMTSL2): −1.188
Fold-Change (4.0 vs. 0.0) (gene ADARB1, after six months of LAQ): −1.229
Fold-Change (4.0 vs. 0.0) (gene ADCYAP1R1, six months of treatment): −1.151
Fold-Change (4.0 vs. 0.0) (gene ADH6, PBMC, six months of LAQ treatment): −1.114
Fold-Change (4.0 vs. 0.0) (gene ADRA1A, after six months of LAQ): −1.14
Fold-Change (4.0 vs. 0.0) (gene ADRBK1, six months of treatment): −1.148
Fold-Change (4.0 vs. 0.0) (gene AGTR2, six months of treatment): −1.144
Fold-Change (4.0 vs. 0.0) (gene AGXT, after six months of LAQ): −1.143
Fold-Change (4.0 vs. 0.0) (gene AHCTF1, after six months of LAQ): −1.304
Fold-Change (4.0 vs. 0.0) (gene AHI1): −1.188
Fold-Change (4.0 vs. 0.0) (gene AKAP4, PBMC, six months of LAQ treatment): −1.121
Fold-Change (4.0 vs. 0.0) (gene AKAP5, after six months of LAQ): −1.124
Fold-Change (4.0 vs. 0.0) (gene AKR1B10, six months of treatment): −1.156
Fold-Change (4.0 vs. 0.0) (gene ALDH1A2, after six months of LAQ): −1.39
Fold-Change (4.0 vs. 0.0) (gene ALDOB, PBMC, six months of LAQ treatment): −1.105
Fold-Change (4.0 vs. 0.0) (gene ALPP /// ALPPL2): −1.189
Fold-Change (4.0 vs. 0.0) (gene ALX1, six months of treatment): −1.157
Fold-Change (4.0 vs. 0.0) (gene AMHR2, after six months of LAQ): −1.253
Fold-Change (4.0 vs. 0.0) (gene ANGPTL3, after six months of LAQ): −1.1414
Fold-Change (4.0 vs. 0.0) (gene ANK2, after six months of LAQ): −1.143
Fold-Change (4.0 vs. 0.0) (gene ANKLE2, six months of treatment): −1.152
Fold-Change (4.0 vs. 0.0) (gene ANKRD34C, after six months of LAQ): −1.125
Fold-Change (4.0 vs. 0.0) (gene ANKRD53, after six months of LAQ): −1.137
Fold-Change (4.0 vs. 0.0) (gene ANKS1B, six months of treatment): −1.156
Fold-Change (4.0 vs. 0.0) (gene ANO2, six months of treatment): −1.147
Fold-Change (4.0 vs. 0.0) (gene ANO3, six months of treatment): −1.152
Fold-Change (4.0 vs. 0.0) (gene ANP32A /// ANP32C /// ANP32D /// LOC723972, PBMC, six months of LAQ treatment): −1.074
Fold-Change (4.0 vs. 0.0) (gene AOC3, after six months of LAQ): −1.13
Fold-Change (4.0 vs. 0.0) (gene AP4E1, six months of treatment): −1.149
Fold-Change (4.0 vs. 0.0) (gene APBB2, PBMC, six months of LAQ treatment): −1.121
Fold-Change (4.0 vs. 0.0) (gene APBB2, after six months of LAQ): −1.14
Fold-Change (4.0 vs. 0.0) (gene APOBEC2, six months of treatment): −1.16
Fold-Change (4.0 vs. 0.0) (gene AQP5, after six months of LAQ): −1.228
Fold-Change (4.0 vs. 0.0) (gene ARHGAP1, after six months of LAQ): −1.254
Fold-Change (4.0 vs. 0.0) (gene ARHGDIA, after six months of LAQ): −1.254
Fold-Change (4.0 vs. 0.0) (gene ARHGEF15, six months of treatment): −1.155
Fold-Change (4.0 vs. 0.0) (gene ARHGEF16, six months of treatment): −1.16
Fold-Change (4.0 vs. 0.0) (gene ARL4D): −1.177
Fold-Change (4.0 vs. 0.0) (gene ARSD, six months of treatment): −1.153
Fold-Change (4.0 vs. 0.0) (gene ARSJ, after six months of LAQ): −1.128
Fold-Change (4.0 vs. 0.0) (gene ARVCF, PBMC, six months of LAQ treatment): −1.117
Fold-Change (4.0 vs. 0.0) (gene ASAP3): −1.188
Fold-Change (4.0 vs. 0.0) (gene ASCL3, after six months of LAQ): −1.243
Fold-Change (4.0 vs. 0.0) (gene ASIP, after six months of LAQ): −1.231
Fold-Change (4.0 vs. 0.0) (gene ATAD4): −1.189
Fold-Change (4.0 vs. 0.0) (gene ATN1, after six months of LAQ): −1.137
Fold-Change (4.0 vs. 0.0) (gene ATP1A2, six months of treatment): −1.147
Fold-Change (4.0 vs. 0.0) (gene ATP1B1, after six months of LAQ): −1.511
Fold-Change (4.0 vs. 0.0) (gene ATP2A2, after six months of LAQ): −1.226
Fold-Change (4.0 vs. 0.0) (gene ATP6V1B1, PBMC, six months of LAQ treatment): −1.115
Fold-Change (4.0 vs. 0.0) (gene ATXN3L, after six months of LAQ): −1.127
Fold-Change (4.0 vs. 0.0) (gene AZGP1, after six months of LAQ): −1.229
Fold-Change (4.0 vs. 0.0) (gene B3GALT1, after six months of LAQ): −1.143
Fold-Change (4.0 vs. 0.0) (gene B4GALT1, after six months of LAQ): −1.231
Fold-Change (4.0 vs. 0.0) (gene BBOX1, six months of treatment): −1.153
Fold-Change (4.0 vs. 0.0) (gene BCAM, after six months of LAQ): −1.136
Fold-Change (4.0 vs. 0.0) (gene BCAT1, after six months of LAQ): −1.305
Fold-Change (4.0 vs. 0.0) (gene BGN, after six months of LAQ): −1.252
Fold-Change (4.0 vs. 0.0) (gene BICC1, after six months of LAQ): −1.127
Fold-Change (4.0 vs. 0.0) (gene BIRC5, after six months of LAQ): −1.245
Fold-Change (4.0 vs. 0.0) (gene BMP7, after six months of LAQ): −1.134
Fold-Change (4.0 vs. 0.0) (gene BOK, PBMC, six months of LAQ treatment): −1.111
Fold-Change (4.0 vs. 0.0) (gene BTF3L1, after six months of LAQ): −1.127
Fold-Change (4.0 vs. 0.0) (gene C1QL1, six months of treatment): −1.153
Fold-Change (4.0 vs. 0.0) (gene C1orf175 /// TTC4, six months of treatment): −1.148
Fold-Change (4.0 vs. 0.0) (gene C2orf72): −1.191
Fold-Change (4.0 vs. 0.0) (gene C4A /// C4B /// LOC100292046 /// LOC100294156, after six months of LAQ): −1.248
Fold-Change (4.0 vs. 0.0) (gene C5orf4, after six months of LAQ): −1.46
Fold-Change (4.0 vs. 0.0) (gene C6orf10, PBMC, six months of LAQ treatment): −1.096
Fold-Change (4.0 vs. 0.0) (gene C6orf15): −1.177
Fold-Change (4.0 vs. 0.0) (gene C6orf54, six months of treatment): −1.149
Fold-Change (4.0 vs. 0.0) (gene C6orf145, after six months of LAQ): −1.328
Fold-Change (4.0 vs. 0.0) (gene C6orf155, six months of treatment): −1.147
Fold-Change (4.0 vs. 0.0) (gene C8orf39, after six months of LAQ): −1.273
Fold-Change (4.0 vs. 0.0) (gene C8orf71, PBMC, six months of LAQ treatment): −1.098
Fold-Change (4.0 vs. 0.0) (gene C8orf79, PBMC, six months of LAQ treatment): −1.11
Fold-Change (4.0 vs. 0.0) (gene C9orf116, after six months of LAQ): −1.139
Fold-Change (4.0 vs. 0.0) (gene C10orf10, after six months of LAQ): −1.229
Fold-Change (4.0 vs. 0.0) (gene C15orf2, after six months of LAQ): −1.264
Fold-Change (4.0 vs. 0.0) (gene C16orf71): −1.195
Fold-Change (4.0 vs. 0.0) (gene C17orf53): −1.185
Fold-Change (4.0 vs. 0.0) (gene C19orf26): −1.192
